These are yes or no findings as the source states them, for the method shown. Some entries that bind do so weakly or less than the wild type.
Target: Cynomolgus monkey Serum Albumin (Cynomolgus monkey) (UniProt A2V9Z4)
Experiment: SPR (BIAcore)

The chains behind the UniProt entries cited, without tags or fusion partners. Residues count along the entry.
UniProt A2V9Z4, residues 25-608: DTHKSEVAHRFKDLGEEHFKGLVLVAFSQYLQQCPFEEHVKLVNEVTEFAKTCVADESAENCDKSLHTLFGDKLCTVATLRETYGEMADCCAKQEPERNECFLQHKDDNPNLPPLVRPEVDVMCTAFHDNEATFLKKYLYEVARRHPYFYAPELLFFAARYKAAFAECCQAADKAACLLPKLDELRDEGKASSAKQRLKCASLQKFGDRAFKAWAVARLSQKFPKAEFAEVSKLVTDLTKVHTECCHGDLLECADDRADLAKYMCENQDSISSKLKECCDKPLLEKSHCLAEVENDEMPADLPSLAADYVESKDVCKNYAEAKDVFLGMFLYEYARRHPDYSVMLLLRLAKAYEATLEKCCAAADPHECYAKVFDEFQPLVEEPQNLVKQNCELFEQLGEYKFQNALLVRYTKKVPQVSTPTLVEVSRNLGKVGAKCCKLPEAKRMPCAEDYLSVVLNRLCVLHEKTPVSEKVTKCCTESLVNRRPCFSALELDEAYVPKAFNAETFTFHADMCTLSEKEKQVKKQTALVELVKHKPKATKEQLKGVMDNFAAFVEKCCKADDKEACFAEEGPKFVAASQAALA

B1: DOM7h-11-3 (protein)
VL: DIQMTQSPSSLSASVGDRVTITCRASRPIGTTLSWYQQKPGKAPKLLILWNSRLQSGVPSRFSGSGSGTDFTLTISSLQPEDFATYYCAQAGTHPTTFGQGTKVEIKR
In the case of B1, the binding is reported as “binds”.

From patent US20110305696A1
